Data as given in the supplement of paper PMC12578635.
Some of the results follow. Cut-off read from the data, not from the text of the source: active = 150% or more and inactive = the rest. Many values rest on one well or one pass, so single values are uncertain.

tested on: Staphylococcus aureus JE2-lux inside RAW 264.7 macrophages; assay: intracellular bacterial bioluminescence relative to DMSO vehicle; higher = higher intracellular bacterial metabolic activity; conditions: 10 µM; treatment time 4 h; gentamicin 50 µg/ml

Intracellular bacterial bioluminescence, inactive:
COc1cccc(NCc2cc3c(C)nn(-c4ccc(F)cc4)c3[nH]c2=O)c1 127%
Nc1ncnc(SC2=NCCCN2)c1[N+](=O)[O-] 88.9%
COc1ccc(C2=C(C)C(N3CCC(C(=O)NCc4ccc5c(c4)OCO5)CC3)=NS2(=O)=O)cc1 110%
Cc1cccc2sc(NC(=O)CN3C(=O)c4ccccc4S3(=O)=O)nc12 7.81%
COCCn1/c(=N/C(=O)c2cc(=O)c3ccccc3o2)sc2ccccc21 115%
O=C(CCn1cnc2c(-c3ccccc3)noc2c1=O)NC1CCS(=O)(=O)C1 (stereo unspecified) 94.2%
Cc1cccc2c1NC(=O)C2(O)CC(=O)c1ccc(-c2ccc(Cl)cc2)o1 (stereo unspecified) 82.7%
Cc1cn2c3c(=O)n(C)c(=O)n(C)c3nc2n1CCCn1ccnc1 131%
CC(=O)Nc1c(C)cc(C)c(NS(=O)(=O)c2ccc3c(c2)NC(=O)CO3)c1C 104%
COc1ccc(OC)c(CCn2c(=S)[nH]c3c(oc4ccccc43)c2=O)c1 116%
CC(=O)c1ccc(S(=O)(=O)Nc2ccc(-n3c(C)nc4ccccc4c3=O)cc2)cc1 106%
O=C(NCc1ccc2c(c1)OCO2)C1CCN(c2nccn3nc(-c4ccc(F)cc4)cc23)CC1 91.2%
CN1CCCC(NC(=O)COc2ncnc3ccccc23)C1 (stereo unspecified) 101%
CCCc1cc(=O)[nH]c(Nc2cc(Cl)ccc2O)n1 127%
Cc1ccc(-n2c(C)cs/c2=N\C(=S)Nc2ccccc2)cc1 71.1%
O=C(CSc1nc2ccc(N3CCCCC3)cc2c(=O)n1Cc1ccccc1)NCc1ccco1 89.3%
Cc1nn2c(N(C)C)cc(C(C)(C)C)nc2c1-c1ccc(F)cc1 95.9%
Cc1nn(C)c(C)c1NC(=O)CCn1c(-c2ccc(F)cc2)cc2cccnc21 85.9%
COc1cc(OC)c(NS(=O)(=O)c2cc(-c3cc(C(F)(F)F)on3)cs2)cc1Cl 107%
Cc1ccc2cc(CN(C(=O)Nc3ccccc3F)C3CCCC3)c3nnnn3c2c1 39.5%
CCn1c(C(=O)NCc2ccccn2)c(N2CCCC2=O)c2cc(F)ccc21 104%
CC[C@@H](Cn1nc(-c2cccs2)ccc1=O)NC(=O)c1cccs1 82.2%
O=C(NCCCC1CCOC1)c1cnn(-c2ccc(F)cc2)c1 (stereo unspecified) 85.4%
CCOC(=O)C(C)Oc1cccc2c(=O)n(CC(=O)N3CCCCC3)ccc12 (stereo unspecified) 75.1%
COc1ccc(C(=O)N2CCc3c(c(C(=O)NCc4ccc(F)cc4)nn3C)C2)cc1 75.7%
CC(=O)Nc1cccc(-c2nn3c(C)nnc3s2)c1 82.8%
Cc1cc(Cl)cc2sc(N(Cc3cccnc3)C(=O)C(C)C)nc12 13.2%
COc1cccc(NC(=O)c2ccc(S(=O)(=O)N3CCc4ccccc4C3)cc2)c1 100%
CC(=O)Nc1cccc(NC(=O)NC2CC(=O)N(c3ccc4c(c3)OCCO4)C2)c1 (stereo unspecified) 123%
CCc1cc(C)cc(OC(=O)CSc2nc(-c3ccc(OC)cc3)nc3cc(=O)[nH]n23)c1 125%
CCOC(=O)c1c(SCC(=O)Nc2ccc([N+](=O)[O-])cc2)nc(=O)[nH]c1C 105%
O=C(OCn1nnc2ccccc2c1=O)C(c1ccccc1)c1ccccc1 69.3%
COc1ccc(NC(=O)CSc2nc(C)c(C)c(=O)[nH]2)cc1OC 118%
O=C(CCCS(=O)(=O)c1ccccc1)Nc1nc2c(F)cc(F)cc2s1 104%
O=C(NCCC1CCCCN1S(=O)(=O)c1ccc(F)cc1)C(=O)NCc1ccc2c(c1)OCO2 (stereo unspecified) 35.5%
O=C(Cn1c(=O)n(Cc2ccco2)c(=O)c2oc3ccccc3c21)Nc1ccc(Cl)cc1 109%
Cc1ccc(NC(=O)c2cc(S(=O)(=O)N3CCCCC3)ccc2F)cc1C 89.5%
Cc1cc(N2CCc3ccccc32)nc(-n2cc([N+](=O)[O-])cn2)n1 92%
COc1ccc(C2CC(c3ccc(NS(C)(=O)=O)cc3)=NN2S(C)(=O)=O)cc1OC (stereo unspecified) 85.8%
O=C1Nc2ccc(S(=O)(=O)Oc3ccc4oc5ccccc5c4c3)c3cccc1c23 77%
O=C(CN1CCC(n2cnc3cc(F)ccc32)CC1)Nc1nccs1 94.1%
Cc1c[nH]c(=O)nc1SCc1ccc([N+](=O)[O-])cc1 49.2%
CCOC(=O)c1sc(NC(=O)/C=C/c2ccc([N+](=O)[O-])s2)cc1C 87.9%
O=C(CSc1ncnc2c1cnn2-c1cccc(Cl)c1)NCc1ccc2c(c1)OCO2 96.7%
CCOC(=O)c1cnn(-c2ccc(C(=O)Nc3ccc(C(F)(F)F)cc3)cn2)c1N 129%
COc1cccc2cc(C(=O)NC(C)=O)/c(=N/c3cccc4ccccc34)oc12 100%
Cc1ccc(C(C)C)c(OCCCN2C(=O)C(=O)c3cccc(C)c32)c1 81%
CCc1cc2c(N3CCCC(C(=O)Nc4ccc5c(c4)OCCO5)C3)ncnc2s1 (stereo unspecified) 92.1%
Cc1cccc(CNc2ncnc3c2c(C)c(C)n3-c2ccc(Cl)cc2)c1 91.4%
COc1ccc(Cl)cc1NC(=O)CN1C(=O)[C@@H]2CCCN2C(=O)c2ccccc21 89.6%
CCOc1ccc2ncc(S(=O)(=O)c3ccccc3)c(Nc3ccc(OC)c(OC)c3)c2c1 76.9%
O=C(Nc1nnc(SCc2cccnc2)s1)C1CC(=O)N(c2ccccc2)C1 (stereo unspecified) 69.6%
CC(=O)c1ccc(/N=c2\oc3ccccc3cc2C(N)=O)cc1 97.3%
CC1Cc2nc(SCC(=O)Nc3ccc4c(c3)OCO4)n(Cc3ccccc3)c(=O)c2S1 (stereo unspecified) 60.1%
CCCn1c(=S)[nH]c2cc(C(=O)NCc3ccccc3)ccc2c1=O 35.9%

Among those listed so far, 2 have a CF3 group.
Intracellular bacterial bioluminescence, inactive:
COc1cc(OC)c(NS(=O)(=O)c2cc(-c3cc(C(F)(F)F)on3)cs2)cc1Cl 107%
CCOC(=O)c1cnn(-c2ccc(C(=O)Nc3ccc(C(F)(F)F)cc3)cn2)c1N 129%

Quoted at random: 2 entries already listed, in no set order.
Intracellular bacterial bioluminescence, inactive:
Cc1cn2c3c(=O)n(C)c(=O)n(C)c3nc2n1CCCn1ccnc1 131%
CN1CCCC(NC(=O)COc2ncnc3ccccc23)C1 (stereo unspecified) 101%

Next part:

Intracellular bacterial bioluminescence, active:
COC(=O)C1=C(N)Oc2c(oc(CO)cc2=O)C1c1ccc2c(c1)OCO2 (stereo unspecified) 182%
